Source: the supplement of paper PMC9454738
Where a name gives a salt, the structure may show the parent alone. ± gives the standard deviation of the averaged measurements. The list shows a part of the results. Single values are uncertain here, since repeats match poorly.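 Assays used MDA-MB-231 triple-negative breast cancer cells and their brain-metastatic line MDA-MB-231BRM, stably carrying empty vector, full-length GLI1 or truncated tGLI1. After 48 h, viability was read with CellTiter-Blue and normalized to 1% DMSO vehicle. tGLI1 selectivity meant viability fell 20% more in tGLI1 cells than in vector and GLI1 cells.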

The molecules below were run on MDA-MB-231 GLI1 (assay: cell viability relative to vehicle (DMSO) control (fraction); higher = more viable cells (less growth inhibition)). Conditions: 0.05 µM; treatment time 48 h.

| Structure (SMILES) | cell viability |
| --- | --- |
| O=C(NCCO)c1cccc(-c2cc(Nc3ccc(OC(F)(F)F)cc3)ncn2)c1 | 2.15 |
| N#CC(=C(/N)Sc1ccccc1N)/C(C#N)=C(\N)Sc1ccccc1N | 1.44 |
| CN(C)Cc1cccc(N/C(=C2\C(=O)Nc3cc(C(N)=O)ccc32)c2ccccc2)c1 | 1.41 |
| C[C@@H](CN1CC(=O)NC(=O)C1)N1CC(=O)NC(=O)C1 [Dexrazoxane Hydrochloride] | 1.06 |
| COc1ccc(-c2ccc3ncc4c(c3c2)n(-c2ccc(N3CCNCC3)c(C(F)(F)F)c2)c(=O)n4C)cn1 | 0.221 |
| CC(C)(C)c1cnc(CSc2cnc(NC(=O)C3CCNCC3)s2)o1 | 0.34 |
| Cc1c(F)cc(C(=O)NC2CC2)cc1-c1ccc(C(=O)NCC(C)(C)C)cn1 | 1.36 |
| CCCC1O[C@@H]2C[C@H]3[C@@H]4CCC5=CC(=O)C=C[C@]5(C)[C@H]4[C@@H](O)C[C@]3(C)[C@]2(C(=O)CO)O1 (some centres undefined) [Budesonide] | 1.15 |
| C[C@@H](Oc1cc(-c2cnn(C3CCNCC3)c2)cnc1N)c1c(Cl)ccc(F)c1Cl | 1.3 ± 0.22 |
| O=C1NC(=O)/C(=C/c2ccc3nccc(-c4ccncc4)c3c2)S1 | 1.42 |
| Cc1ccc2nc(NCCN)c3ncc(C)n3c2c1 | 2.37 |
| CC(=O)[C@]1(O)Cc2c(O)c3c(c(O)c2[C@@H](O[C@H]2C[C@H](N)[C@H](O)[C@H](C)O2)C1)C(=O)c1ccccc1C3=O [Idarubicin HCl] | -0.16 |
| NC1(c2ccc(-c3nc4ccn5c(=O)[nH]nc5c4cc3-c3ccccc3)cc2)CCC1 | 1.08 |
| O=C1NC(=O)/C(=C/c2ccc(-c3ccc(F)cc3O)o2)S1 | 1.25 |

Single values from the results shown.
Under cell viability, CC(=O)[C@]1(O)Cc2c(O)c3c(c(O)c2[C@@H](O[C@H]2C[C@H](N)[C@H](O)[C@H](C)O2)C1)C(=O)c1ccccc1C3=O [Idarubicin HCl] shows -0.16
Under cell viability, C[C@@H](CN1CC(=O)NC(=O)C1)N1CC(=O)NC(=O)C1 [Dexrazoxane Hydrochloride] shows 1.06
